For at least one compound, name, drawing or mass did not settle the structure.
Experiments:
nNOSalpha protein = nNOSalpha protein expression, Western blot; format: in vivo, rat
Protocol: nNOSa protein was quantified in gastric antrum homogenates from all groups using standard western blot analysis, as described in our previous study (94). Proteins were measured by Bio-Rad protein assay (Bio-Rad, Hercules, Calif.) and 30 μg protein was separated by 6% SDS polyacrylamide gel electrophoresis (SDS-PAGE). The membrane was immunoblotted with polyclonal nNOSa primary antibody (Zymed Laboratories Inc., CA) and anti-rabbit IgG conjugated with horseradish peroxidase (Sigma Chemical, St. Louis, Mo.) as secondary antibody. Binding of antibodies to the blots was detected with enhanced chemiluminescence system (ECL, Amersham Pharmacia Biotech, Piscataway, N.J.) following manufacturer's instructions. Stripped blots were re-probed with g-tubulin specific polyclonal antibodies (Sigma Chemical, St. Louis, Mo.) to enable normalization of signals between samples. Band intensities were analyzed using Bio-Rad Gel Doc (Bio-Rad, Hercules, Calif.).

nNOS = test: Gastric nNOS activity in female diabetic rats; format: in vivo, rat; conditions: dietary BH4, n=2
[1] = Body weight in control and STZ-diabetic female rats; format: in vivo, rat; conditions: BH4 supplementation
Protocol: Diabetes was induced in overnight fasted animals by a single intraperitoneal injection of streptozotocin (STZ, 55 mg kg^−1) (Sigma Chemical, St. Louis, Mo.) prepared in 9 mmol citrate buffer, pH 4.0. Control animals were injected with the vehicle (9 mmol citrate buffer, pH 4.0) (94). Blood glucose levels were examined in overnight fasted animals, 48 h post STZ injection. […] Blood glucose levels in vehicle-treated overnight fasting rats ranged between 80-95 mg dl^−1. Both control and diabetic female rats were selected during the diestrus phase of the estrous cycle using vaginal smear testing method [by measuring vaginal cytology (90-100% of leucocytes) under microscope] for further experiments. As reported earlier, 60-70% of diabetic rats show a persistent diestrous stage of the estrous cycle (data not shown) (95-96).
At the end of 7th week of diabetes induction, animals were divided into four groups, i.e. control female rats (C), diabetic female rats (DB), BH4 supplemented diabetic female rats (DB+BH4) and SEP supplemented diabetic female rats (DB+SEP). DB+BH4 were provided with BH4 pellets (20 mg kg^−1 body wt day^−1) for next 2 weeks. […] Tissue samples were snap frozen in liquid nitrogen and stored at −80° C. until analyzed. BH4 or SEP-pellets used in this study were prepared by compressing (Schircks Laboratories, Switzerland) with rodent chow and stored at −20° C. until used. […]

female rats [2] = conditions: cited from earlier work
gastric tissues = test: Nitrergic relaxation of gastric tissues after in vitro incubation (organ bath); design: species or system rat; conditions: exogenous BH4 100 μM, 30 min incubation, female diabetic (FD) and control (FC) stomachs, n=2
female rats [3] = test: Solid gastric emptying studies; format: in vivo, rat; conditions: female diabetic rats, dietary BH4 25 mg/kg b.w./day
Protocol: In addition, using the similar gastric emptying protocol, accelerated gastric emptying was observed instead of delayed gastric emptying in spontaneous diabetic female but not in male diabetic animals (101).
According to the protocol, animals were fasted over night (provide water). On the next day, known amount of food was fed to the animals for 3 h. At the end of 3 h collected the remaining food from the cage and calculated the amount of food intake. Then fast the animals for 4 hrs without food and water. At the end of fast, animals were euthanized, collected the gastric tissue and measured the weight of the whole stomach. Then removed the food contents by opening the stomach and measured the empty stomach weight. The rate of gastric emptying was calculated according to the following equation: gastric emptying (% in 4 h)=(1−gastric content food intake^−1)×100.

rats = test: Intragastric (antrum) pressure by ambulatory telemetry; format: in vivo, rat; conditions: female diabetic rats, dietary BH4 25 mg/kg b.w./day
Protocol: The intragastric antrum pressure (IGAP) was measured in normal and diabetic male (FIG. 3A) and female (FIG. 3B) rats. The transducer pressure catheter was introduced into the gastric antrum cavity 5 mm proximal to the pylorus to record IGAP (mmHg×sec). After recording the baseline IGAP, N^G-nitro-L-arginine methyl ester (L-NAME, 200 mg/day/kg body weight (BW)/rat) was administered subcutaneously in the same rats by osmotic mini-pumps (Alza, Palo Alto, Calif., model 2ML1 with a pumping rate of 10 μl/hour) for 4 days. All subsequent studies were performed 1 week after surgery in overnight fasted rats that were awake and in a free-moving state. Pressure recordings were performed at least 2-3 hours between 9-12 am. Bilateral ovariectomy was performed as reported previously. Dietary BH4 (25 mg/day/kg body weight (BE)/rat). *p<0.05. ANOVA.
Intragastric pressure (IGP) was measured using ambulatory telemetric device. […]
Dietary BH4 (25 mg/kg b.w/rat/day) was supplemented for female rats for 12 weeks beginning from day 2 after diabetic induction. Intragastric pressure (IGP) was measured in female control, diabetic and diabetic+BH4 treated rats. […] In another experiment, diabetic females were treated for 3 weeks with BH4 and nNOS alpha protein expression was measured in treated and untreated gastric tissues.

[4] = system: female diabetic gastric cross sections; test: Reactive oxygen species staining of gastric cross sections; format: in vivo, rat; conditions: diabetic females, BH4 treatment

In the case of `C[C@H](O)[C@H](O)[C@H]1CNc2nc(N)[nH]c(=O)c2N1` [tetrahydrobiopterin], the “Change in nNOSalpha protein expression” value (nNOSalpha protein; control female rat gastric antrum, BH4 or sepiapterin) is reported as “no change”, the “Effect on decreased nNOSalpha protein expression” value (nNOSalpha protein; diabetic females treated 3 weeks with BH4) is reported as “attenuated” and the “Effect on gastric nNOS activity” value (nNOS) is reported as “partially restored”. For the same molecule, the “Effect on body weights” value [1] was “restored”, the “Gastric motility, difference between two doses” value (female rats [2]; BH4 5 and 20 mg kg^−1, recent report (99)) was “no significant difference” and the “Effect on delayed gastric emptying, by gender” value (female rats [2]; onset of diabetes, published data (94, 99)) was “restores delayed gastric emptying only in female but not in males”. For the same molecule, the “Effect on nitrergic relaxation” value (gastric tissues) was “increased nitrergic relaxation in diabetic (FD) but not control (FC)”, the “Effect on delayed solid gastric emptying” value (female rats [3]) was “completely restored” and the “Effect on delayed solid gastric emptying” value (female rats [3]; listed as BH4, 25 mg/kg/day) was “significantly restored”. The “Effect on elevated intragastric pressure” value (rats) was “completely restored”, the “Effect on elevated intragastric pressure” value (rats; listed as BH4, 25 mg/kg/day) was “significantly attenuated” and the “Effect on ROS staining” value [4] was “reduced the intensity of staining”.
